PubChem BioAssay AID743255 (National Center for Advancing Translational Sciences (NCATS), 2014)
Screen size: about 390,000 compounds; about 910 (0.23%) were called active. Inconclusive means that the source gave no clear call. Such entries were picked first, then a sample of the others. The call rests on the fitted dose curve; in most records, active means well fitted inhibition curve with a large enough effect; inconclusive means small, poorly fitted or top-dose-only effect; inactive means no such curve, though single readings can be large or run the other way. Where the call is inconclusive, the potency comes from a doubtful curve fit.

Protein sequences, listed by entry. Tags and fused reporters are not part of them. Lines headed by an entry give the natural chain unless they say otherwise; changes in a name come on top.
UniProt O94782: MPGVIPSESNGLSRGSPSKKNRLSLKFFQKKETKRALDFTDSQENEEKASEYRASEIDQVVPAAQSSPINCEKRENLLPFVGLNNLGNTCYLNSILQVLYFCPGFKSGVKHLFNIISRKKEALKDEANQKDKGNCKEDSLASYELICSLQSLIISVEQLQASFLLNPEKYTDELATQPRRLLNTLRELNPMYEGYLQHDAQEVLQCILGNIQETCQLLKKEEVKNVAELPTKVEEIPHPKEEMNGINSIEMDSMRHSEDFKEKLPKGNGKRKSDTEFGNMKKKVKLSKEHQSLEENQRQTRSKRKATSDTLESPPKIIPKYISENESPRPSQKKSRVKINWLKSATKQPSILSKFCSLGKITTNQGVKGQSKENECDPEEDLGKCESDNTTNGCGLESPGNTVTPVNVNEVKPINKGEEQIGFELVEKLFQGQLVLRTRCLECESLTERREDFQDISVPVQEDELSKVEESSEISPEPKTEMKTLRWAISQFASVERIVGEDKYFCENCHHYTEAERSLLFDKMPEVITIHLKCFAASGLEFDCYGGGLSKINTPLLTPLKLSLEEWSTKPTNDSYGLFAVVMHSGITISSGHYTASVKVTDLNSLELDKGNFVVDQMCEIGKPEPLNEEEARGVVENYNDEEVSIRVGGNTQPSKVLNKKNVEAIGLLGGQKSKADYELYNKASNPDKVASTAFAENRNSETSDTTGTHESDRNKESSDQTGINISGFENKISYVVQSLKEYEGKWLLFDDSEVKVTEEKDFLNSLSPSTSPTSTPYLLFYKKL

molecular target: Ubiquitin carboxyl-terminal hydrolase 1 (Homo sapiens) (UniProt O94782); assay: Inhibitors of USP1/UAF1: Primary Screen; details: recombinant USP1/UAF1, Ub-Rhodamine cleavage fluorescence; activity change, negative = inhibition: at 57.1 µM (top of the series); further: nearly all actives have a fitted effect of over 60% in size
Procedure, shortened: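 In this screen, compounds sit with the deubiquitinase complex (1nM) for 15 min at room temperature before Ub-Rho is added at 150nM final. Fluorescence rise is then followed for 6 reads every 60 seconds.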
On the % scale 0 is the no-effect control and ±100 the full control effect; potency means the concentration at half of the fitted maximal effect.

Potency, inactive:
O=C(CSc1ccc(-c2ccccn2)nn1)Nc1ccc(F)cc1F

Potency, active:
COC1=C(c2ccccc2)C(=O)c2ccccc2C1=O 14.1 µM, CCOc1ccccc1N1CCN(C(=O)c2cc(-c3cc(OC)ccc3OC)nc3ccccc23)CC1 15.8 µM, CCN(CC)c1ccc(/C=C2/C(=O)c3ccc(C(=O)O)cc3C2=O)cc1 12.6 µM

Potency, inconclusive:
Cc1ccc(S(=O)(=O)N(CC(=O)NCCc2ccc(Cl)cc2)c2ccccc2C)cc1 0.891 µM [inhibitor, full curve], CSc1ccc(Cl)c(C(=O)NCCOc2cc(C)ccc2C(C)C)c1 28.2 µM [inhibitor, partial curve], N#CCCn1cc(/C=N/O)c(-c2cccc([N+](=O)[O-])c2)n1 35.5 µM [inhibitor, partial curve, poor fit], O=C(O)CN1C(=O)/C(=C\c2cn(CC(=O)N3CCOCC3)c3ccccc23)SC1=S 44.7 µM [inhibitor, single point], CCCCOc1cccc(C(=O)Nc2ccc(S(=O)(=O)Nc3cc(C)on3)cc2)c1 6.31 µM [inhibitor, partial curve, poor fit], COc1cccc(N2CCN(C(=O)c3cccn3-c3nnc(N4CCCC4)s3)CC2)c1 25.1 µM [inhibitor, partial curve], Cc1cccc(CSc2nc(-c3cccs3)ccc2C#N)c1 35.5 µM [inhibitor, partial curve], Cc1coc2c(C)c3oc(=O)c(CC(=O)NCCc4ccc(Cl)cc4)c(C)c3cc12 50.1 µM [inhibitor, partial curve, poor fit], CS(=O)(=O)NN1C(=O)c2ccccc2NC1c1cccc(O)c1 (centres undefined) 8.91 µM [inhibitor, single point], Cc1ccc(NC(=O)CN2CCc3ccccc3C2)cc1S(=O)(=O)N(C)C 0.794 µM [inhibitor, full curve, poor fit], COc1cc(C(=O)OCC(=O)c2c(N)n(C)c(=O)n(C)c2=O)ccc1OCCC(C)C 79.4 µM [inhibitor, partial curve, poor fit], CCn1ccnc1CN(C)Cc1cn(-c2ccc(C)cc2)nc1-c1cccc(C)c1 6.31 µM [inhibitor, single point], COc1ccc(Nc2oc(COc3ccc(C)cc3)nc2C#N)cc1 44.7 µM [inhibitor, partial curve], Cc1ccc(-n2c(CCc3ccccc3)nnc2SCC(=O)NCc2ccccc2)cc1C 56.2 µM [inhibitor, partial curve, poor fit], O=c1ccc(-c2ccccc2)nn1Cc1ccc(F)cc1Cl 12.6 µM [inhibitor, partial curve, poor fit], C#CCOc1ccc(C2CC(=O)Nc3c2c(C)nn3-c2nc(C)cc(C)n2)cc1 (centres undefined) 39.8 µM [inhibitor, partial curve], Cc1ccccc1P(=O)(c1ccccc1)c1ccccc1C 35.5 µM [inhibitor, partial curve], CCCCC1(C2CCCC2)NC(=O)NC1=O (centres undefined) 50.1 µM [inhibitor, partial curve, poor fit], Cc1c(Cl)cccc1NC(=S)NCCc1ccc(F)cc1 35.5 µM [inhibitor, single point], Cc1ccccc1SC1CCN(Cc2nc(C3CC3)no2)CC1 6.31 µM [inhibitor, single point], O=C(CSC(=S)N1CCCC1)c1cc(Br)cc(Br)c1O 50.1 µM [inhibitor, partial curve, poor fit], CCCCCCCCCCCCCCCC(=O)NCCc1c[nH]c2ccccc12 5.62 µM [inhibitor, partial curve], COc1ccccc1N/C=C/C(=C(C#N)C#N)N(C)C 7.94 µM [inhibitor, partial curve, poor fit], CCCN(CCC)CC(O)Cn1cc(/C=C/C(=O)c2ccc(Br)cc2)c2ccccc21 (centres undefined) 39.8 µM [inhibitor, partial curve], COc1ccc(-c2nnn(CC(=O)NCc3ccccc3)n2)cc1OC 44.7 µM [inhibitor, partial curve, poor fit], O=C(O)CC1S/C(=N\N=C2\C(=O)Nc3ccccc32)N(c2ccc(O)cc2)C1=O (centres undefined) 2.82 µM [inhibitor, full curve], COc1ccc(N=c2cc(-c3ccc(O)cc3)oc3ccccc23)cc1 50.1 µM [inhibitor, partial curve, poor fit], CC(C)(C)N1C(=O)[C@H]2[C@@H](c3ccc(Br)cc3)N3C(=O)N(c4cccc(Br)c4)C(=O)[C@@]3(Cc3ccccc3)[C@H]2C1=O 50.1 µM [inhibitor, partial curve, poor fit], CCOC(=O)C1(CC2CC2)CCN(C(=O)c2cc(C3CC3)nc3ccccc23)CC1 1.58 µM [inhibitor, full curve, poor fit], CC1(OC(=O)c2cccs2)C(=O)C=C2C=C(C3CC3)OC=C2C1=O (centres undefined) 44.7 µM [inhibitor, partial curve], O=c1c2cnn(-c3ccccc3)c2ncn1Cc1ccccc1F 0.794 µM [inhibitor, full curve], O=C(Nc1ccc(Br)cc1)c1ccc(F)c(S(=O)(=O)N2CCc3ccccc32)c1 0.631 µM [inhibitor, full curve, poor fit], CCCC[C@@H]1CN=C(N)N1CCCC 35.5 µM [inhibitor, partial curve, poor fit], CC(=O)N1CCC2(CC1)C(C#N)=C(N)Oc1n[nH]c(C(F)(F)F)c12 0.1 µM [inhibitor, full curve, poor fit], Cc1ccc(CN2CCN(C3CCN(C(=O)Nc4ccc(C)cc4Cl)CC3)C(=O)C2=O)cc1 0.562 µM [inhibitor, full curve, poor fit], CC(=O)N1CCc2cc(CNC(=O)c3ccccc3Br)ccc21 0.251 µM [inhibitor, full curve, poor fit], Nc1ccc(S(=O)(=O)O)cn1 79.4 µM [inhibitor, partial curve, poor fit], O=C(O)CCCCCN1C(=O)/C(=C\c2ccc(-c3ccc(Cl)cc3)o2)SC1=S 0.794 µM [inhibitor, full curve, poor fit], CC(C)CCN(C(=O)Nc1ccccc1)C(C)c1cccs1 (centres undefined) 35.5 µM [inhibitor, partial curve], CC[C@@H](C)[C@H](CN[C@H](CNC)[C@@H](C)O)NCCc1ccc(OC)cc1 63.1 µM [inhibitor, partial curve, poor fit]

Activity change, negative = inhibition, inconclusive:
CCCOc1nc2c(c(=O)n(C)c(=O)n2C)n1CCC -7.78% [inhibitor], Cc1ccc(C(=O)CCC(=O)OCC(=O)N(C)c2c(N)n(Cc3ccccc3)c(=O)[nH]c2=O)cc1 -29.2% [inhibitor]

Activity change, negative = inhibition, inactive:
O=[N+]([O-])c1ccc(S(=O)(=O)N2CCSC2c2ccco2)cc1 (centres undefined) -27.5%, Cc1ccccc1N1CCN(C2CCCN(C(=O)c3cc(CC(C)C)nn3C)C2)CC1 (centres undefined) -20.2%, CCCCOc1ccc(S(=O)(=O)Nc2ccc(-c3ccc(N4CCC(C)CC4)nn3)cc2)cc1 -2.61%, Clc1ccc(CN2C3=NCCCN3c3ccccc32)cc1Cl -3.16%, O=C(Nc1cccc(CNCCc2c[nH]c3ccccc23)c1)c1ccccc1Cl -19.1%, COc1ccc(-c2[nH]c(-c3ccc(F)cc3)nc2SCC(=O)NC2CCCC2)cc1 -8.8%, Cc1ccc(S(=O)(=O)Nc2c(O)ccc3ccccc23)cc1 -13.2%, COc1ccc(CCC(=O)NCCS(=O)(=O)N2CCN(c3ccccc3OC)CC2)cc1 -23.3%, CC1CCCCN1C(=O)CN1C(=O)c2ccccc2S1(=O)=O (centres undefined) -8.52%, Cc1cc(NC(=O)C2CCN(S(=O)(=O)c3cccc4nsnc34)CC2)ccc1Br -19%, C=CCNC(=O)c1c(N)n(-c2cccc(S(N)(=O)=O)c2)c2nc3ccccc3nc12 -6.23%, COc1ccc(-c2cc3nc(C)cc(N)n3n2)cc1 -20%, Nc1nc(O)c(N=Nc2ccc(S(N)(=O)=O)cc2)c(=O)[nH]1 -19.7%, c1ccc2c(c1)CCN(c1nc(CN3CCOCC3)nc3sc4c(c13)CCCC4)C2 -15.7%, CC(C)[C@H](NC(=O)N1CC(=O)Nc2ccccc21)C(=O)N[C@H](C(=O)O)c1ccccc1 -16.6%, COc1ccc2occ(C(=O)c3ccccc3)c2c1 0.761%, O=C(O)c1ccc(Nc2cc(Cl)c3nonc3c2[N+](=O)[O-])cc1 -17.1%, CCOC(=O)C1CCN(C(=O)/C=C/c2cccs2)CC1 -10.6%, Cc1cccc(OCCCc2c(C)n[nH]c2C)c1 -0.119%, Cc1nc2sc(C(=O)c3ccccc3)c(N)c2c(C)c1C -2.52%, CC1CCCCN1C(=S)Nc1ccc(S(=O)(=O)N2CCCCC2)cc1 (centres undefined) -5.07%, CC(C)(CNC(=O)c1cccc(NS(=O)(=O)c2ccc(Br)cc2)c1)N1CCOCC1 -15.8%, C[C@]12C=CC(=O)C=C1CC[C@@H]1[C@@H]2[C@@H](O)C[C@@]2(C)[C@H]1CC[C@]2(O)C(=O)CO -25.9%
